The target of this assay is cell division protein FtsZ from Actinosynnema pretiosum WXR-24 (Actinosynnema pretiosum WXR-24). Put plainly: light scattering; in vitro assembly of 15 uM FtsZ in J buffer (50 mM KCl, 50 mM MES, pH 6.5, 10 mM CaCl2, 5 mM MgCl2), room temperature, started with 1 mM GTP; with or without 500 uM AP-3; both purified.

No constants are given. Whether binding was seen depends on the method and setting. Some entries that bind do so weakly or less than the wild type.

B1: cell division protein FtsZ from Actinosynnema pretiosum WXR-24 (protein, UniProt A0A290ZCJ0 1-404)
chain: MTPPHNYLAVIKVVGIGGGGVNAVNRMIEVGLKGVEFIAVNTDAQALLMSDADVKLDIGRELTRGLGAGANPEVGHKAAEDHREEIEEVLKGADMVFVTAGEGGGTGTGGAPVVASIARKLGALTIGVVTRPFSFEGKRRAKQAEEGIQALRNECDTLIVIPNDRLLQLGDIGVSLMDAFRSADEVLLSGVQGITDLITTPGLINLDFADVKSVMSGAGSALMGIGSARGEGRAVQAAQKAINSPLLEASMEGAHGVLLSIAGGSDLGLFEINESASLVQEAAHPDANIIFGTVIDDSLGDEVRVTVIAAGFDGNGPTHKKLEPQALSSPPKAVEPQPAPPVAVEPSPPPTPPLPTLPVQPQPPASTYQPPQPLPRPLGGLGNRAVPVTDDPDDEVDVPPFMRR
With B1, the binding entry was “binds”.

For the origin of these results see publication PMC7277737.
